Here are results for 22 targets from the supplement of paper PMC6411743.

Chains of the proteins cited; added tags and fusions are not shown. Lines headed by an entry give the natural chain unless they say otherwise; changes in a name come on top.
UniProt Q99808: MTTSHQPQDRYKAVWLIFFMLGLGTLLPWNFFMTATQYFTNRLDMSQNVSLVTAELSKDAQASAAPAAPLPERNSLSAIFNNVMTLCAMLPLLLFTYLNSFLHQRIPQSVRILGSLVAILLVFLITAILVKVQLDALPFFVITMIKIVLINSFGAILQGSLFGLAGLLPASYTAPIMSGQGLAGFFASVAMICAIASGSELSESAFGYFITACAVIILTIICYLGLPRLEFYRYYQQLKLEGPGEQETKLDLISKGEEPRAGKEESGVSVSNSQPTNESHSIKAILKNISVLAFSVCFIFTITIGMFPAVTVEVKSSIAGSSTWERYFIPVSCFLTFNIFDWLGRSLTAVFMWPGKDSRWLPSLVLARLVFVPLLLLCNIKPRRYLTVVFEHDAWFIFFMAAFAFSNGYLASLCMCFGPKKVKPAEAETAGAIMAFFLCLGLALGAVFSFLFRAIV
UniProt Q9BUE6: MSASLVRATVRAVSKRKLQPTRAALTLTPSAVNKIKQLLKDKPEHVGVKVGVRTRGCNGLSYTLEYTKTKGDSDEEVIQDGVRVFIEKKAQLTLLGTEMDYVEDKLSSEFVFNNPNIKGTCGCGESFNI
UniProt Q9BWH2: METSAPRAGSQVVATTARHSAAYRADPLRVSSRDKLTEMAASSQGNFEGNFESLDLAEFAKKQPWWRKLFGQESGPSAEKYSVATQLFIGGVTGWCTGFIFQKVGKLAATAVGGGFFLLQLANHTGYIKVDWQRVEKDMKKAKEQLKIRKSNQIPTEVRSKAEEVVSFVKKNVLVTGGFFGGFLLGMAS
UniProt Q99707: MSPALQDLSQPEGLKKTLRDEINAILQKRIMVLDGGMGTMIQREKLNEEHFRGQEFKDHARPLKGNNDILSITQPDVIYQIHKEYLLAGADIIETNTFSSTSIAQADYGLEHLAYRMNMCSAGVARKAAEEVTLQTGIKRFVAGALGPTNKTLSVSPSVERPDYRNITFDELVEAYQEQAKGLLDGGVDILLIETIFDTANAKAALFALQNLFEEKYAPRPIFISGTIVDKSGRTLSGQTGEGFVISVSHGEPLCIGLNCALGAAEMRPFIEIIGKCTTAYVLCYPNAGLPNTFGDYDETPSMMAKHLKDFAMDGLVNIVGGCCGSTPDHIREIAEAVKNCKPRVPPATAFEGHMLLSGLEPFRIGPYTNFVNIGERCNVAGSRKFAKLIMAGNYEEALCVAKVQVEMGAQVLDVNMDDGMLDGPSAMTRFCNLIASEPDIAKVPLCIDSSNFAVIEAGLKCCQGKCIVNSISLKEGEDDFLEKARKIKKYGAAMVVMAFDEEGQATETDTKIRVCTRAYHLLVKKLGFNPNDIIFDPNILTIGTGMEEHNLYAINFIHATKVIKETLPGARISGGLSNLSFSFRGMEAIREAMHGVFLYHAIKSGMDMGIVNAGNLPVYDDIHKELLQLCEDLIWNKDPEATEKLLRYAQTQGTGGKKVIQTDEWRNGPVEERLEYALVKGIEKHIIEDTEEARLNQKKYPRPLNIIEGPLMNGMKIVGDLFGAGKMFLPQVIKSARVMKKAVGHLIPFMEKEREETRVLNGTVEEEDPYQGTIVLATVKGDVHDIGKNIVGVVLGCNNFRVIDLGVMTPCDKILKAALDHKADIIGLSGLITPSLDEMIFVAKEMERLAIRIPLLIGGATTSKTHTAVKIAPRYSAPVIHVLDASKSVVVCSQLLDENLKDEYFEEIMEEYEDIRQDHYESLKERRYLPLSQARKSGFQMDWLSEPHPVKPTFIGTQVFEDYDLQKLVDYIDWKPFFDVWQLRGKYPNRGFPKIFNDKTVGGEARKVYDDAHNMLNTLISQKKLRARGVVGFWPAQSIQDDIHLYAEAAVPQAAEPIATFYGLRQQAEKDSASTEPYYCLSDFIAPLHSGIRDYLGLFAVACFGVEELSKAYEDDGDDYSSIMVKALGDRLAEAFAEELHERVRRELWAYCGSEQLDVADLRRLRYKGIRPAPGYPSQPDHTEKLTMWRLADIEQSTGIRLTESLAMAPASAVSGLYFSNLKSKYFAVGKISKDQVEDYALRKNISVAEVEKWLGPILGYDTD
UniProt Q9BRJ6: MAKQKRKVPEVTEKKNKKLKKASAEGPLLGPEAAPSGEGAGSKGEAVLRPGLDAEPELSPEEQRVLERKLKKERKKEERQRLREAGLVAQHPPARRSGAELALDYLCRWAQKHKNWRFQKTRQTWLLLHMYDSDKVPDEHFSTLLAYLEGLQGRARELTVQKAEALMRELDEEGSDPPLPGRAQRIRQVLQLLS
UniProt Q9BTE3: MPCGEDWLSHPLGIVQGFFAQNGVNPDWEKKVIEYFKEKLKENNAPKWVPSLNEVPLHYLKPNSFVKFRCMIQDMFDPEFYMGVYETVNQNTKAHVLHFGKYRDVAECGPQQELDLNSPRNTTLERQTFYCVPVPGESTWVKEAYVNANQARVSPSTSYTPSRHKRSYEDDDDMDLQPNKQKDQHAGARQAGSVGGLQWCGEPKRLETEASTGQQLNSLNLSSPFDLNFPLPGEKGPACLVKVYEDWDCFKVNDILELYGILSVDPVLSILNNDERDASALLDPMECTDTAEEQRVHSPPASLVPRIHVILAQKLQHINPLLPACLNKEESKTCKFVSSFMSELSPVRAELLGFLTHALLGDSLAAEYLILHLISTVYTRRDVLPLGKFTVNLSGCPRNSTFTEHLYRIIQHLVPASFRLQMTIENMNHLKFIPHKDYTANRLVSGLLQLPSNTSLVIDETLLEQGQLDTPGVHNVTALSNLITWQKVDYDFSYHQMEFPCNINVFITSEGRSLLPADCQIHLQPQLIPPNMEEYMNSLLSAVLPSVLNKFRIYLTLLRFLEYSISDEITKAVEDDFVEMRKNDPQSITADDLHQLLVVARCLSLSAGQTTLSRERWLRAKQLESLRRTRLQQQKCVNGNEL
UniProt Q99943: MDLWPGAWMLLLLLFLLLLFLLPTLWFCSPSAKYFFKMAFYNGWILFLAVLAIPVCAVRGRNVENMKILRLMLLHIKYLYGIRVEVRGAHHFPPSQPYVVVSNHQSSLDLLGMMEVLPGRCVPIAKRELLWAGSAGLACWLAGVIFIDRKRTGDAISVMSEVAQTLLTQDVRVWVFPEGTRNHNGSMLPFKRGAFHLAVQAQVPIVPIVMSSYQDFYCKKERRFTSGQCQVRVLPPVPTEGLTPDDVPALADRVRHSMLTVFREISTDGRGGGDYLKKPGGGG
UniProt Q9BTU6: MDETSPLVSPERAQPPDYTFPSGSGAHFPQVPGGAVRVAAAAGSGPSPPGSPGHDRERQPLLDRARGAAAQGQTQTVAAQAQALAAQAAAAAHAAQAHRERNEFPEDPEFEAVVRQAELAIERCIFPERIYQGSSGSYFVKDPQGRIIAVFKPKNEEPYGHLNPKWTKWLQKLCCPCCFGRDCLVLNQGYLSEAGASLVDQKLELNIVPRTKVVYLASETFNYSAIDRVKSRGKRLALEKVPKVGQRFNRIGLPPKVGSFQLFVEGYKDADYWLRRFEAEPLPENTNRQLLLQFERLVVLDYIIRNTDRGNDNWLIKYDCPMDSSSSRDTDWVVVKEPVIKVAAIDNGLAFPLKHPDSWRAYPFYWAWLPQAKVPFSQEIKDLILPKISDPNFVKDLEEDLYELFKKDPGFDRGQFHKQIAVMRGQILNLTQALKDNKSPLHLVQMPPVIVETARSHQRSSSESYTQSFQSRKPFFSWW
UniProt Q9BX63: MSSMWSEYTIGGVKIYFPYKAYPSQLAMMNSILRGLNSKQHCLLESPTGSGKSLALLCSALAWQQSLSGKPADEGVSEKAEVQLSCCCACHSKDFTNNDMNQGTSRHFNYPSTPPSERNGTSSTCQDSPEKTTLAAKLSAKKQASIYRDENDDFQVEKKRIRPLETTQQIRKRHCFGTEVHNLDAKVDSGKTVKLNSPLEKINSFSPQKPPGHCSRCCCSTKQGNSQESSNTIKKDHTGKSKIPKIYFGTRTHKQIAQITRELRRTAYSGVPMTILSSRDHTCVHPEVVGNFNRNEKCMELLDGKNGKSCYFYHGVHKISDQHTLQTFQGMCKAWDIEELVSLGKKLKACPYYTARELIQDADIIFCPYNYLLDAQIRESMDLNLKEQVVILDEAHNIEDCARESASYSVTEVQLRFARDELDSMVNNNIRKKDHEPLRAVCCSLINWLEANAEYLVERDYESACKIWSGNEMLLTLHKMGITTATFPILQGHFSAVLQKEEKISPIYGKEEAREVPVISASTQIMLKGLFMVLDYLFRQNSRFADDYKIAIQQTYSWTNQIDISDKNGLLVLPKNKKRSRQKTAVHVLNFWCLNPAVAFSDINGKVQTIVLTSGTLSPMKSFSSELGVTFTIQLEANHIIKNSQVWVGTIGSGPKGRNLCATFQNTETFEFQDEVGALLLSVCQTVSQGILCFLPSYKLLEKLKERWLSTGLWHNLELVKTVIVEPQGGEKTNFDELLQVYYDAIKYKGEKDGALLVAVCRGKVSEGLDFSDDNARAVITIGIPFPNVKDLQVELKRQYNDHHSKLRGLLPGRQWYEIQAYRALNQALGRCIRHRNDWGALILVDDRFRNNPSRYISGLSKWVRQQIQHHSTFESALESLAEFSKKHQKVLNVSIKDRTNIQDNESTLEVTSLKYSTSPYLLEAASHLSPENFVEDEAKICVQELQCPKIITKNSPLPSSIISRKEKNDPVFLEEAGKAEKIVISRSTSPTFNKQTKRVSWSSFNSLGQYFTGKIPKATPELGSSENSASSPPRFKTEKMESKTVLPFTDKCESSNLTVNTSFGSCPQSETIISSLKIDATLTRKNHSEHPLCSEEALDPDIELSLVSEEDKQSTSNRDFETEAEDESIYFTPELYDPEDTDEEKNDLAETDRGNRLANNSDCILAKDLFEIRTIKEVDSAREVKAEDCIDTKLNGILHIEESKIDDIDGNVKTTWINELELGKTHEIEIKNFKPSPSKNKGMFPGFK
UniProt Q9BRZ2: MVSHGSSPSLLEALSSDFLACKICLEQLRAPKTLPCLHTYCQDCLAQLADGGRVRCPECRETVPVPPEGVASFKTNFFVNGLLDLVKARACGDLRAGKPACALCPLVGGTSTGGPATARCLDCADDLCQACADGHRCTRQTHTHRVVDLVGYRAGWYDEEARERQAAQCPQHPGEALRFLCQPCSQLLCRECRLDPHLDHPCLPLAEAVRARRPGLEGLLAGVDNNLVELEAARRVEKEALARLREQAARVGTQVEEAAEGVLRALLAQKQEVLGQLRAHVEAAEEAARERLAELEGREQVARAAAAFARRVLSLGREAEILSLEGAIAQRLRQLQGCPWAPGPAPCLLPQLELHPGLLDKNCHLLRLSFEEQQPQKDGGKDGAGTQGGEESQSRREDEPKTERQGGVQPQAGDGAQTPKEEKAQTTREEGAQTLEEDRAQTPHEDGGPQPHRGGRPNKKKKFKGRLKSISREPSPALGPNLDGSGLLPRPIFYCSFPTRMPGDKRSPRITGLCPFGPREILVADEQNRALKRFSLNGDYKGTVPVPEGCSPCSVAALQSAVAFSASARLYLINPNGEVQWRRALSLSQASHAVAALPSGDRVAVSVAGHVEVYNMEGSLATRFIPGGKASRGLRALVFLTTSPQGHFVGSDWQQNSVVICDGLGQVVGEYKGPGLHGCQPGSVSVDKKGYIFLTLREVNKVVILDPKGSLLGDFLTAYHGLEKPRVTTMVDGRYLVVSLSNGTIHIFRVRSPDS
UniProt Q9BT09: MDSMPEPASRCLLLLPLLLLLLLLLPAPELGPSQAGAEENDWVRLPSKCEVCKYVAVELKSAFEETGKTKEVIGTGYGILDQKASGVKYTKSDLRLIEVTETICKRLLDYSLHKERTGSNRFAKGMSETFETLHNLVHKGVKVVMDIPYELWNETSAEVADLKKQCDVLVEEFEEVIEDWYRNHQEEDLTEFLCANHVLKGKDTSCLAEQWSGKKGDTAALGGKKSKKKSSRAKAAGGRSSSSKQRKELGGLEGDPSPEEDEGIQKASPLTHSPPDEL
UniProt Q9BVA0, whole entry: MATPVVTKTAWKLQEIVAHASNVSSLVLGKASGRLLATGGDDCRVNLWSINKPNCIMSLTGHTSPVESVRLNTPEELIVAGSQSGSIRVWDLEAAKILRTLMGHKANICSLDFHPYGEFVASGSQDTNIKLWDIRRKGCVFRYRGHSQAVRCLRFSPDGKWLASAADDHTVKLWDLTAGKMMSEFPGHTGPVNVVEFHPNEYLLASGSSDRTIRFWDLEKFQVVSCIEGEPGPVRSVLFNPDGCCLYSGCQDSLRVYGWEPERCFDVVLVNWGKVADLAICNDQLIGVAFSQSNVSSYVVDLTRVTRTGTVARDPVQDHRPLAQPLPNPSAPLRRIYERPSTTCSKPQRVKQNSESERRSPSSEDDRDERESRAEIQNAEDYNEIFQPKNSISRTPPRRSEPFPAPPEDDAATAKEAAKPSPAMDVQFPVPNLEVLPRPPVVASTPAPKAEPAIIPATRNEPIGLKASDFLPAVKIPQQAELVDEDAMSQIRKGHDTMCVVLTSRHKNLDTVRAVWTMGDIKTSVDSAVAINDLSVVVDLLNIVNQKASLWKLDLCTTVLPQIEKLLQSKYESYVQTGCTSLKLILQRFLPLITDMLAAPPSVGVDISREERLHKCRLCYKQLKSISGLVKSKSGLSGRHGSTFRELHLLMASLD

Compound in this assay: Nc1ncnc2c1ncn2[C@@H]1O[C@H](COP(=O)(O)OP(=O)(O)OP(=O)(O)O)[C@@H](O)[C@H]1O [adenosine triphosphate]
Nature of the assay: NP40-soluble protein abundance relative to vehicle (solubility fold change) (ratio); higher = more soluble protein in presence of ATP. The method, boiled down:
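Across three independent experiments, values are fold changes against the detergent-processed vehicle for each replicate, based on vsn-normalised intensities. The samples were Jurkat crude lysate treated with eight concentrations (0.1 to 10 mM) for 10 min at room temperature and then 3 min at 37 °C. Lysate was solubilised with 0.8% NP40 and benzonase, ultracentrifuged, and the supernatant analysed by TMT-labelled LC-MS/MS.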

± gives the standard deviation of the averaged measurements. The entries are a selection whose mix differs from that of the whole data set. Most entries show no effect beyond the scatter of the controls.

For the target MRPL9 (UniProt Q9BYD2), the NP40-soluble protein abundance (concentration: 0.1mM) was found to be 0.951 ± 0.071 and the NP40-soluble protein abundance (concentration: 0.5mM) is 1 ± 0.074.
As to UniProt Q99538 and related entries, the NP40-soluble protein abundance amounted to 0.945 ± 0.042 (concentration: 0.1mM) and 0.917 ± 0.014 (concentration: 0.5mM).
Take UniProt Q99808 and related entries: the NP40-soluble protein abundance runs as follows: (concentration: 0.1mM) 0.996 ± 0.025; (concentration: 0.5mM) 1.03 ± 0.012.
UniProt Q9BUE6 and related entries: the NP40-soluble protein abundance runs as follows: (concentration: 0.1mM) 1 ± 0.028; (concentration: 0.5mM) 1.02 ± 0.1.
For the target FUNDC2 (UniProt Q9BWH2), the NP40-soluble protein abundance (concentration: 0.1mM) came to 0.923 ± 0.017 and the NP40-soluble protein abundance (concentration: 0.5mM) was 0.912 ± 0.046.
For UniProt Q99707 and related entries, the NP40-soluble protein abundance (concentration: 0.1mM) was found to be 1.02 ± 0.035 and the NP40-soluble protein abundance (concentration: 0.5mM) is 1.04 ± 0.042.
Take UniProt Q9BW85: the NP40-soluble protein abundance came out at 0.918 ± 0.044 (concentration: 0.1mM) and 0.958 ± 0.058 (concentration: 0.5mM).
As to UniProt Q99460 and related entries, the NP40-soluble protein abundance reads like this: (concentration: 0.1mM) 0.959 ± 0.047; (concentration: 0.5mM) 0.952 ± 0.045.
Regarding PELO (UniProt Q9BRX2), the NP40-soluble protein abundance is, setting by setting: (concentration: 0.1mM) 1.05 ± 0.087; (concentration: 0.5mM) 1.05 ± 0.045.
Take C7orf50 (UniProt Q9BRJ6): the NP40-soluble protein abundance was found to be 1.07 ± 0.095 (concentration: 0.1mM) and 0.999 ± 0.04 (concentration: 0.5mM).
Take UniProt Q9BTE3 and related entries: the NP40-soluble protein abundance is, setting by setting: (concentration: 0.1mM) 1.05 ± 0.048; (concentration: 0.5mM) 1.07 ± 0.056.
Consider AGPAT1 (UniProt Q99943), for which the NP40-soluble protein abundance by setting is: (concentration: 0.1mM) 0.99697 ± 0.00078; (concentration: 0.5mM) 1.003 ± 0.0044.
On to TMEM43 (UniProt Q9BTV4), for which the NP40-soluble protein abundance was 1.06 ± 0.088 (concentration: 0.1mM) and 1.07 ± 0.069 (concentration: 0.5mM).
For SH3GL1 (UniProt Q99961), the NP40-soluble protein abundance was determined as 1 ± 0.065 (concentration: 0.1mM) and 0.997 ± 0.01 (concentration: 0.5mM).
Regarding PI4K2A (UniProt Q9BTU6), the NP40-soluble protein abundance turned out to be 1.03 ± 0.065 (concentration: 0.1mM) and 1.04 ± 0.055 (concentration: 0.5mM).
With BRIP1 (UniProt Q9BX63), the NP40-soluble protein abundance was determined as 1.09 ± 0.012 (concentration: 0.1mM) and 1.04 ± 0.055 (concentration: 0.5mM).
As for TRIM56 (UniProt Q9BRZ2), the NP40-soluble protein abundance (concentration: 0.1mM) stood at 1.02 ± 0.068 and the NP40-soluble protein abundance (concentration: 0.5mM) is 1 ± 0.064.
The corresponding values for CABLES2 (UniProt Q9BTV7) are 1.15 ± 0.066 and 1.09 ± 0.19.
As for DDA1 (UniProt Q9BW61), the NP40-soluble protein abundance runs as follows: (concentration: 0.1mM) 0.927 ± 0.09; (concentration: 0.5mM) 0.941 ± 0.015.
CNPY3 (UniProt Q9BT09): the NP40-soluble protein abundance amounted to 0.914 ± 0.013 (concentration: 0.1mM) and 0.905 ± 0.046 (concentration: 0.5mM).
Take KATNB1 (UniProt Q9BVA0): the NP40-soluble protein abundance reads like this: (concentration: 0.1mM) 1.009 ± 0.0077; (concentration: 0.5mM) 0.992 ± 0.021.
Take TSNAX (UniProt Q99598): the NP40-soluble protein abundance by setting is: (concentration: 0.1mM) 0.9996 ± 0.0085; (concentration: 0.5mM) 0.986 ± 0.025.
